Test results reported in patent US9583325B2, “System and method of delicate membrane condensed phase membrane introduction mass spectrometry (CP-MIMS)” (priority 2013, dated 2017).
A unit is not stated for every read-out.

Assays:
[1] = Miniature CP-MIMS coaxial probe measurements in aqueous samples; conditions: for membrane wash-out Improvement Factor (IF), methanol versus water wash: 40 mL stirred wash solvent; for sensitivity relative to gemfibrozil (times greater, per mass): from calibration slopes
[2] = Delicate membrane CP-MIMS flow cell: detection limits and signal response times in aqueous solutions
[3] = 215 μm thick PDMS HFM, 10 cm, aqueous 30 °C
[4] = Composite PDMS HFM (0.5 μm thick), 10 cm
[5] = 35 μm thick PDMS HFM, 5 cm, S/N = 3
[6] = Composite PDMS HFM (0.5 μm thick), S/N = 3

Oc1c(Cl)cc(Cl)cc1Cl [2,4,6-Trichlorophenol, 2,4,6-trichlorophenol]
membrane wash-out Improvement Factor (IF), methanol versus water wash ([1]; miniature probe): 1.2
t10-90% response time ([2]; 35 μm thick PDMS HFM, 5 cm): 0.7 min
t10-90% response time [2, 3]: 2.5 min
t10-90% response time [2, 4]: 0.3 min

CC(C)C1=CC2=CC[C@@H]3[C@](C)(CCC[C@@]3(C)C(=O)O)[C@H]2CC1 [Abietic Acid, Abietic acid]
t10-90% response time ([2]; 35 μm thick PDMS HFM, 5 cm): 12.5 min
Detection limit [2, 5]: 2 ppb
t10-90% response time [2, 3]: 16.5 min
Detection limit ([2]; 215 μm thick PDMS HFM, S/N = 3): 1 ppb
t10-90% response time [2, 4]: 1.6 min
Detection limit [2, 6]: 0.6 ppb

Cc1ccc(C)c(OCCCC(C)(C)C(=O)O)c1 [Gemfibrozil, 5-(2,5-dimethylphenoxy)-2,2-dimethyl-pentanoic acid]
concentration observed in the methanol acceptor phase ([1]; 40 mL of 70 ppb aqueous sample): 9 ppb
total mass transfer from the sample under steady state ([1]; 70 ppb sample, acceptor flow 200 μL/min): ca. 2 ng/min
maximum signal level lower than in 1.8 mL or larger samples ([1]; 400 μL sample, 70 ppb): ~5 ×
calibration slope ([1]; DI water, miniature probe, stir bar mixing): 30 ppb^−1
t10-90% response time ([2]; 35 μm thick PDMS HFM, 5 cm): 3.7 min
Detection limit [2, 5]: 0.5 ppb
t10-90% response time [2, 3]: 4.7 min
Detection limit ([2]; 215 μm thick PDMS HFM, S/N = 3): 0.2 ppb
t10-90% response time [2, 4]: 0.8 min
Detection limit [2, 6]: 0.04 ppb
Detection limit ([2]; Example 5, experiments to be repeated, composite PDMS HFM): 40 pptr
Detection limit ([2]; composite PDMS HFM): 40 pptr

Oc1cc(Cl)ccc1Oc1ccc(Cl)cc1Cl [Triclosan, 5-chloro-2-(2,4-dichlorophenoxy)phenol]
sensitivity relative to gemfibrozil (times greater, per mass) [1]: 6.0 times
t10-90% response time ([2]; 35 μm thick PDMS HFM, 5 cm): 2.0 min
Detection limit [2, 5]: 0.5 ppb
t10-90% response time [2, 3]: 5.8 min
Detection limit ([2]; 215 μm thick PDMS HFM, S/N = 3): 0.1 ppb
t10-90% response time [2, 4]: 0.6 min
Detection limit [2, 6]: 0.1 ppb

nonylphenol
sensitivity relative to gemfibrozil (times greater, per mass) [1]: 5.2 times
membrane wash-out Improvement Factor (IF), methanol versus water wash ([1]; miniature probe): 4.1
t10-90% response time ([2]; 35 μm thick PDMS HFM, 5 cm): 3.5 min
Detection limit [2, 5]: 2 ppb
t10-90% response time [2, 3]: 9.5 min
Detection limit ([2]; 215 μm thick PDMS HFM, S/N = 3): 0.1 ppb
t10-90% response time [2, 4]: 1.0 min
Detection limit [2, 6]: 0.5 ppb
